Assay results reported in US8614202B2, “2α-methyl and 2β-methyl analogs of 19,26,27-trinor-(20S)-1α-hydroxyvitamin D3 and their uses” (Wisconsin Alumni Research Foundation, priority 2004, dated 2013).

Test system: 24-hydroxylase (24Ohase) gene promoter in ROS 17/2.8 (bone) cells
Assay: In vitro transcription assay (24-hydroxylase promoter luciferase reporter)
Assay type: cell-based
Conditions: ROS 17/2.8 cells, 24Ohase-luciferase, sixteen hours after dosing; read-out: EC50, transcriptional activity in bone cells
Protocol: In Vitro Transcription Assay
Transcription activity was measured in ROS 17/2.8 (bone) cells that were stably transfected with a 24-hydroxylase (24Ohase) gene promoter upstream of a luciferase reporter gene (Arbour et al., 1998). Cells were given a range of doses. Sixteen hours after dosing the cells were harvested and luciferase activities were measured using a luminometer. • RLU=relative luciferase units. Intestinal Calcium Transport and Bone Calcium Mobilization

For C=C1/C(=C\C=C2/CCC[C@]3(C)[C@@H]([C@H](C)CCCC(C)(C)O)CC[C@@H]23)C[C@@H](O)C[C@@H]1O [1,25(OH)2D3, 1α,25-dihydroxyvitamin D3, reference compound], the EC50 was 0.19 nM.
